Experimental data from patent US9737478B2, “Treatment of malaria” (National Institutes of Health (NIH), U.S. Dept. of Health …, priority 2009, dated 2017).
“Also recorded” adds a separate entry of the source. At least one structure is not confirmed: it was looked up by name or label, or the drawing left a doubt.

Key:
[1] = system: Plasmodium berghei ANKA (PbA); test: Treatment of PbA-infected mice presenting clinical cerebral malaria (survival, motor score, parasitemia); format: in vivo, C57B1/6 mice
[2] = system: PbA-infected mice with clinical CM; test: Intravital microscopy of pial vessels (closed cranial window) in PbA-infected mice with clinical CM; format: in vivo; details: nimodipine 4 mg/kg IP

## COCCOC(=O)C1=C(C)NC(C)=C(C(=O)OC(C)C)C1c1cccc([N+](=O)[O-])c1 (stereo not shown) [nimodipine]
[1]; nimodipine 1.3 mg/kg IP with artemether 50 mg/kg IP, n=12
  cumulative survival versus artemether-vehicle: not
[1]; nimodipine 4 mg/kg with artemether, versus vehicle-treated group
  survival time of treated but succumbing mice: prolonged survival
[1]; survivor mice, nimodipine n=20, vehicle n=9
  clinical recovery of survivor mice versus artemether-vehicle: faster recovery
[2]
  arteriolar blood flow after 2 hours: remained above baseline
[2]; mice with CM
  RBC velocities: slightly decreased
  arteriolar (vascular) diameter: sustained increase; also recorded: dilate
[2]; n=3
  arteriolar blood flow in mice with clinical CM: increase
